Here are results for 1 molecule from patent publication US20240084025A1.

The chains behind the UniProt entries cited, without tags or fusion partners. Residues count along the entry.
UniProt Q07011, residues 24-186: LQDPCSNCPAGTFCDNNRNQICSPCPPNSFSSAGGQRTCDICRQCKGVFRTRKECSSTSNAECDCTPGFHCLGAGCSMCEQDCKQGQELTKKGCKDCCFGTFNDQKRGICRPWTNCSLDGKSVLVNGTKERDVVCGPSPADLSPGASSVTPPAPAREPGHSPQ

For the experiment, the target named is human 4-1BB (NCBI Accession No. NP_001552.2) (human) (UniProt Q07011). Briefly: phage ELISA on 4-1BB antigen-coated plates, anti-M13 detection, TMB. In general terms: An ELISA detects its analyte on a solid surface through an enzyme-linked reagent.

These are yes or no findings as the source states them, for the method shown. Some results given as binding are weak or reduced against the parent protein; the word gives no strength.

B1: full human monoclonal antibody against 4-1BB (Table 1) (antibody, V domains shown)
VH: EVQLLESGGGLVQPGGSLRLSCAASGFTFSSYDMSWVRQAPGKGLEWVSWISYSGGSIYYADSVKGRFTISRDNSKNTLYLQMNSLRAEDTAVYYCARDAQRNSMREFDYWGQGTLVTVSS
VL: QSVLTQPPSASGTPGQRVTISCSGSSSNIGNNYVTWYQQLPGTAPKLLIYADSHRPSGVPDRFSGSKSGTSASLAISGLRSEDEADYYCATWDYSLSGYVFGGGTKLTVL
For B1, the binding result is “binds”.
